{
  "source": "paper PMC12040169",
  "about": "(PLOS Biology, 2025)",
  "assay": "in vitro",
  "settings": "human, hela cells, % viability",
  "data": [
    {"smiles": "O=C(O)COCCN1CCN(C(c2ccccc2)c2ccc(Cl)cc2)CC1", "note": "(stereo not shown) [CBK201109]", "values": [
      {"measurement": "viability at 28.5 h, 10 µM", "value": 87.4, "unit": "%"}
    ]}
  ]
}
